# Assay results: the supplement of paper PMC4604168 (melanoma cell lines)
# The list shows a part of the results. Many values rest on one well or one pass, so single values are uncertain.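 Imaging used 1,536-well plates; nuclei positive for cleaved PARP by antibody were divided by total DNA-stained nuclei to yield the apoptosis fraction. Doses for screening kept most cells viable, and cell lines differ markedly in resting and induced cleaved-PARP levels.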
# Test system: SkMel28
# Assay: cleaved PARP positive nuclei fraction relative to DMSO control; melanoma cells; higher = more apoptosis
# Conditions: library dose: low library concentration; 72 h
row,Structure (SMILES),cleaved PARP positive nuclei fraction [%]
1,"COc1ccc2c(c1)CCC1C2CCC2(C)C(NCCCCCCN3C(=O)C=CC3=O)CCC12 (stereo unspecified) + COc1cc(N2CCC(N3CCN(C)CC3)CC2)ccc1Nc1ncc(Cl)c(Nc2ccccc2S(=O)(=O)C(C)C)n1 [NVP-TAE684] (first compound 0.4 µM, partner dose 0.08 µM)",88.7
2,"O=C(O)C(=O)Nc1sc2c(c1C(=O)O)CCNC2 + COc1cc(N2CCC(N3CCN(C)CC3)CC2)ccc1Nc1ncc(Cl)c(Nc2ccccc2S(=O)(=O)C(C)C)n1 [NVP-TAE684] (first compound 1.66667 µM, partner dose 0.08 µM)",96.1
3,"CCCCCCCCCCCC1=C(O)C(=O)C=C(O)C1=O [Embelin] + O=c1cc(-c2cccc3c2Sc2ccccc2S3)oc(N2CCOCC2)c1 [KU55933] (first compound 1.2 µM, partner dose 1 µM)",81.2
4,"COc1cc2ncnc(Nc3ccc(Oc4ccccc4)cc3)c2cc1OC + CC(C)CCN1c2nc(Nc3cc(F)c(O)c(F)c3)ncc2N(C)C(=O)C1C [BID1870] (first compound 2 µM, partner dose 0.2 µM)",126
5,"N#Cc1c(O)c2c(-c3ccc(-c4ccccc4O)cc3)csc2[nH]c1=O + COC(=O)c1sccc1S(=O)(=O)Nc1ccc(Nc2ccccc2)cc1OC [GSK0660] (first compound 2 µM, partner dose 1 µM)",71.6
6,"NCC(=O)Nc1ccc(-n2nc(C(F)(F)F)cc2-c2ccc3c(ccc4ccccc43)c2)cc1 + CN(NC(=O)CC(=O)NN(C)C(=S)c1ccccc1)C(=S)c1ccccc1 [STA4783] (first compound 1 µM, partner dose 0.006 µM)",113
7,"NCC(=O)Nc1ccc(-n2nc(C(F)(F)F)cc2-c2ccc3c(ccc4ccccc43)c2)cc1 + COc1cc(N2CCC(N3CCN(C)CC3)CC2)ccc1Nc1ncc(Cl)c(Nc2ccccc2S(=O)(=O)C(C)C)n1 [NVP-TAE684] (first compound 1 µM, partner dose 0.08 µM)",416
8,"CCc1ccc(CCOc2ccc(CC3SC(=O)NC3=O)cc2)nc1 (stereo unspecified) [pioglitazone] + O=C(O)C(=O)Nc1sc2c(c1C(=O)O)CCNC2 [TCS401] (first compound 2 µM, partner dose 1.66667 µM)",136
9,"CCN(CC)CCCCNc1ncc2cc(-c3cc(OC)cc(OC)c3)c(NC(=O)NC(C)(C)C)nc2n1 + Oc1cc(-c2nc(-c3ccccc3)[nH]c2-c2ccncc2)ccc1Cl [L779450] (first compound 0.1 µM, partner dose 0.2 µM)",91.4
10,"O=C1NC(=O)/C(=C/c2ccc(-c3ccc(F)cc3O)o2)S1 + Cc1cc([N+](=O)[O-])ccc1NS(=O)(=O)c1cc(Cl)ccc1Cl [FH535] (first compound 1 µM, partner dose 1 µM)",280
11,"c1cc(-c2cnn3cc(-c4ccc(OCCN5CCCCC5)cc4)cnc23)ccn1 [Dorsomorphin] + CCCCCCCCCCCC1=C(O)C(=O)C=C(O)C1=O [Embelin] (first compound 0.4 µM, partner dose 1.2 µM)",77.1
12,"COC(=O)c1sccc1S(=O)(=O)Nc1ccc(Nc2ccccc2)cc1OC + O=C(O)C(=O)Nc1sc2c(c1C(=O)O)CCNC2 [TCS401] (first compound 1 µM, partner dose 1.66667 µM)",276
13,"O=C(Nc1ccccc1)c1cc([N+](=O)[O-])ccc1Cl + COc1ccc(-c2ccc3c(N4CCOCC4)nc(N4C[C@@H](C)O[C@@H](C)C4)nc3n2)cc1CO [KU0063794] (first compound 2 µM, partner dose 0.02 µM)",98.9
14,"O=C(O)c1ccc(-c2c[nH]c3ncc(-c4ccccc4)cc23)cc1C1CCCC1 + COc1cc2c(Oc3ccc4[nH]c(C)cc4c3F)ncnc2cc1OCCCN1CCCC1 [cediranib] (first compound 0.16 µM, partner dose 0.4 µM)",259
15,"CN(C)S(=O)(=O)c1ccc2c(c1)/C(=C/c1cc3c([nH]1)CCCC3)C(=O)N2 + CN(NC(=O)CC(=O)NN(C)C(=S)c1ccccc1)C(=S)c1ccccc1 [STA4783] (first compound 0.4 µM, partner dose 0.006 µM)",89.4
16,"O=C(O)c1ccc(-c2c[nH]c3ncc(-c4ccccc4)cc23)cc1C1CCCC1 + NCC(=O)Nc1ccc(-n2nc(C(F)(F)F)cc2-c2ccc3c(ccc4ccccc43)c2)cc1 [OSU03012] (first compound 0.16 µM, partner dose 1 µM)",221
17,"CN(C)S(=O)(=O)c1ccc2c(c1)/C(=C/c1cc3c([nH]1)CCCC3)C(=O)N2 + COc1cc2c(Oc3ccc4[nH]c(C)cc4c3F)ncnc2cc1OCCCN1CCCC1 [cediranib] (first compound 0.4 µM, partner dose 0.4 µM)",122
18,"COC(=O)c1sccc1S(=O)(=O)Nc1ccc(Nc2ccccc2)cc1OC + Oc1cc(-c2nc(-c3ccccc3)[nH]c2-c2ccncc2)ccc1Cl [L779450] (first compound 1 µM, partner dose 0.2 µM)",116
19,"O=C1NC(=O)/C(=C/c2ccc(-c3ccc(F)cc3O)o2)S1 + CCCCCCCCCCCC1=C(O)C(=O)C=C(O)C1=O [Embelin] (first compound 1 µM, partner dose 1.2 µM)",195
20,"COc1cc(N2CCC(N3CCN(C)CC3)CC2)ccc1Nc1ncc(Cl)c(Nc2ccccc2S(=O)(=O)C(C)C)n1 + CC(C)CCN1c2nc(Nc3cc(F)c(O)c(F)c3)ncc2N(C)C(=O)C1C [BID1870] (first compound 0.08 µM, partner dose 0.2 µM)",178
21,"CN(C)S(=O)(=O)c1ccc2c(c1)/C(=C/c1cc3c([nH]1)CCCC3)C(=O)N2 + O=C(O)c1ccc(-c2c[nH]c3ncc(-c4ccccc4)cc23)cc1C1CCCC1 [GSK650394] (first compound 0.4 µM, partner dose 0.16 µM)",76.9
22,"COc1cc2ncnc(Nc3ccc(Oc4ccccc4)cc3)c2cc1OC + O=C1NC(=O)/C(=C/c2ccc(-c3ccc(F)cc3O)o2)S1 [AS252424] (first compound 2 µM, partner dose 1 µM)",81.9
23,"CCN(CC)CCCCNc1ncc2cc(-c3cc(OC)cc(OC)c3)c(NC(=O)NC(C)(C)C)nc2n1 + COc1cc(N2CCC(N3CCN(C)CC3)CC2)ccc1Nc1ncc(Cl)c(Nc2ccccc2S(=O)(=O)C(C)C)n1 [NVP-TAE684] (first compound 0.1 µM, partner dose 0.08 µM)",42
24,"O=C(Nc1ccccc1)c1cc([N+](=O)[O-])ccc1Cl + Cc1cc([N+](=O)[O-])ccc1NS(=O)(=O)c1cc(Cl)ccc1Cl [FH535] (first compound 2 µM, partner dose 1 µM)",33.7
25,"COc1ccc(-c2ccc3c(N4CCOCC4)nc(N4C[C@@H](C)O[C@@H](C)C4)nc3n2)cc1CO + Cn1cc(/C=C2\C(=O)Nc3cccnc32)c2ccccc21 [GW441756] (first compound 0.02 µM, partner dose 0.4 µM)",153
26,"COc1cc2c(Oc3ccc4[nH]c(C)cc4c3F)ncnc2cc1OCCCN1CCCC1 [cediranib] + O=c1cc(-c2cccc3c2Sc2ccccc2S3)oc(N2CCOCC2)c1 [KU55933] (first compound 0.4 µM, partner dose 1 µM)",83.2

# An excerpt of these results, tab-delimited.
row	Structure (SMILES)	cleaved PARP positive nuclei fraction [%]
5	N#Cc1c(O)c2c(-c3ccc(-c4ccccc4O)cc3)csc2[nH]c1=O + COC(=O)c1sccc1S(=O)(=O)Nc1ccc(Nc2ccccc2)cc1OC [GSK0660] (first compound 2 µM, partner dose 1 µM)	71.6
18	COC(=O)c1sccc1S(=O)(=O)Nc1ccc(Nc2ccccc2)cc1OC + Oc1cc(-c2nc(-c3ccccc3)[nH]c2-c2ccncc2)ccc1Cl [L779450] (first compound 1 µM, partner dose 0.2 µM)	116
